Measurements reported in patent US9346854B2, “Anti-inflammatory peptides and use thereof” (Yeda Research and Development Co. Ltd., priority 2012, dated 2016).
No end group written: not given here.

Assay: LPS binding assay with NBD-labeled peptides
Settings: NBD-labeled peptide, indication of final oligomerization state
Method: NBD-labeled peptides (50 μl, 2 μM, PBS^−/− 2% DMSO) were added to different concentrations of LPS (50 μl PBS^−/−) in a opaque black 96 well plate. After 10 minutes of incubation at room temperature, the fluorescence was measured using an excitation of 467 nm and emission of 530 nm. The data were plotted and Kd and Bmax values obtained using NLLSQ analysis.

Row | Substance | Bmax [A.U.]
1 | ALALALALALALALALALKK-NH2 [(AL)9K2] | 312
2 | KALALALKALALKALALALK-NH2 [K(AL)3K(AL)2K(AL)3K] | 1810
3 | KKALALALALALAKK-NH2 [K2(AL)5AK2, KKALALALALALAKK] | 4517
4 | KKALALALALALALALALKK [4D-K2(AL)8K2] | 4678
